Data from PMC8034384.

Molecular target: I-A^g7 MHC-II molecule (mouse (endogenous in NOD blood leukocytes))
Assay: affinity purification with mass spectrometry; I-A^g7 isolated from detergent lysate of NOD blood leukocytes (30 min after i.p. glucose challenge, two experiments; or without glucose, one experiment) on anti–I-A^g7 (AG2.42.7) sepharose at 4°C overnight after pre-clearing on mouse IgG sepharose; washes up to 400 mM NaCl, 20 mM Tris; bound peptides eluted with 10% acetic acid and identified by LC-MS/MS

Binder | binding
PQVEQLELGGSPGDLQTLAL [Ins1C:37–56 peptide family (N-terminal fragment of the insulin-1 C-peptide)] | binds
VEALYLVCGERG [Ins2B:12-23 peptide] | binds
LQTLALEVARE (deamidation of glutamine Q61 (converts Q to E)) [singly deamidated (Q61) Ins1C:51-61 peptide] | binds
SHLVEALYLVCGERG [Ins2B:9–23 peptide (insulin-2 B-chain)] | binds
LQTLALEVARQ [Ins1C:51–61 peptide (C-terminal fragment of the insulin-1 C-peptide)] | binds
PQVAQLELGGG [Ins2C:37–47 peptide family (insulin-2 C-peptide)] | binds
SPLLKRQLTSFIEKGQE [Gc:389–405 peptide (vitamin D–binding protein)] | binds
TPEEIAQVATISANGDKDIG [Hspd1:164–183 peptide family (60-kD heat shock protein)] | binds
ILSVHVATAA [ZnT8:313–322 peptide (zinc transporter 8)] | binds
PGAGDLQTLAL [Ins2C:48–58 peptide (insulin-2 C-peptide)] | binds
LVEALYLVCGERG [Ins2B:11-23 peptide] | binds

Results are given in words; binding and its absence hold for the method and conditions named. Binding seen in cells or lysates may run through a third protein. A yes stands for co-enrichment or nearness to the bait. Other partners may have been found.
